# From the supplement of paper PMC12823440, “Inhibitors supercharge kinase turnover through native proteolytic circuits” (Nature, 2025)
# The chains behind the UniProt entries cited, without tags or fusion partners. Where a name states a change or a piece, a line headed by the entry shows the natural chain unless it says otherwise.
# UniProt Q13555: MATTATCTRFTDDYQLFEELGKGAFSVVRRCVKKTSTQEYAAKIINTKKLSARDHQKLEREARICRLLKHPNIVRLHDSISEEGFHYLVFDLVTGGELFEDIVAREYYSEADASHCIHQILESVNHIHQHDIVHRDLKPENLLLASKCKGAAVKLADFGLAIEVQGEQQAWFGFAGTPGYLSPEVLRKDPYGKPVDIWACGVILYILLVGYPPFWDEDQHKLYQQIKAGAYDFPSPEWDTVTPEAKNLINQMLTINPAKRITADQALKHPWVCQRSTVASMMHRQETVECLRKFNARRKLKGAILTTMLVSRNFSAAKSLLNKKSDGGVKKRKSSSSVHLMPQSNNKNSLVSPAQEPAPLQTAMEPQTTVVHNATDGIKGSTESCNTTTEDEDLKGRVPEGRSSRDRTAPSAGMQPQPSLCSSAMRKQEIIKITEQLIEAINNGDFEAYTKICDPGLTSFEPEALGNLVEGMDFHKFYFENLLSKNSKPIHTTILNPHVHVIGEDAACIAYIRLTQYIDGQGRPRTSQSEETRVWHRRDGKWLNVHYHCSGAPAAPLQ
# UniProt Q15131: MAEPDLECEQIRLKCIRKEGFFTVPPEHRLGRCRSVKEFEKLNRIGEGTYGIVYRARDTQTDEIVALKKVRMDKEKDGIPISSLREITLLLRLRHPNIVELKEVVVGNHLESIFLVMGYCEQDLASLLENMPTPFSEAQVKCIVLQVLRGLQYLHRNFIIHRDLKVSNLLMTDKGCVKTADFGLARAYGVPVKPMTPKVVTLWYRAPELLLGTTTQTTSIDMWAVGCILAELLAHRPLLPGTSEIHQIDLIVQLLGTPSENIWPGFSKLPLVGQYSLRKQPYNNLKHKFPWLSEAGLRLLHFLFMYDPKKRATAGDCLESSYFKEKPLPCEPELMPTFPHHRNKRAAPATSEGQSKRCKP
# Where a name gives a salt, the structure may show the parent alone. Some of the results follow. Hit calls seldom repeat between salt and free forms of one compound.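 Kinases, fused to nanoluciferase, were expressed in K562 cells; luminescence was measured every 4 h from 2 to 18 h as percent of control (DMSO = 100%, positive control = 0%). A time point is decreased if signal falls significantly (2 sigma). Hits were called by the authors by a rule that is not shown; the count of time points alone does not decide it.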
# Target: CAMK2G (UniProt Q13555)
# Test: kinase-Nluc reporter destabilization hit call (1 = scored as downregulated) (binary); higher = compound decreases kinase abundance
# Conditions: K562; 2-18 h
row,SMILES,kinase-Nluc reporter destabilization hit call
1,CC(C)(C)c1cc(C=C(C#N)C#N)cc(Br)c1O (2.5 µM),inactive: 0
2,C=CC(=O)N[C@H]1C=C(C)c2c(-c3cnc4ccccc4c3)c3c(N)ncnc3n2C1 (10 µM),inactive: 0
3,COC[C@H]1OC(=O)c2coc3c2[C@@]1(C)C1=C(C3=O)[C@@H]2CCC(=O)[C@@]2(C)C[C@H]1OC(C)=O [Wortmannin] (2.5 µM),inactive: 0
4,CC(=O)c1c(O)c(C)c(O)c(Cc2c(O)c3c(c(C(=O)/C=C/c4ccccc4)c2O)OC(C)(C)C=C3)c1O [Rottlerin] (2 µM),inactive: 0
5,NCCc1cn(S(=O)(=O)c2c(Cl)nc3sccn23)c2ccccc12 (10 µM),inactive: 0

# Target: CDK10 (UniProt Q15131)
# Test: as above
# Conditions: K562; 2-18 h
row,SMILES,kinase-Nluc reporter destabilization hit call
1,CCCCNc1nc(N)c2[nH]c(=O)n(Cc3ccc(C)nc3)c2n1 (10 µM),inactive: 0
2,N#CC(C#N)=Cc1ccc([N+](=O)[O-])c(O)c1 (10 µM),inactive: 0
3,O=c1[nH]c2ccccc2n1C1CCN(Cc2ccc(-c3[nH]c4cc5ncnc5cc4nc3-c3ccccc3)cc2)CC1 [AKT inhibitor VIII] (2.5 µM),inactive: 0
4,CC(=O)Oc1ccc(/C=C/c2cc(OC(C)=O)cc(OC(C)=O)c2)cc1 [Triacetylresveratrol] (10 µM),inactive: 0
5,O=C1c2ccccc2C(=O)c2c1cccc2-c1cnn(C2CCNCC2)c1 [PDK4-IN-1 (hydrochloride)] (10 µM),inactive: 0
6,CC1C(=O)OC2C(O)C34C5OC(=O)C3(OC3OC(=O)C(O)C34C(C(C)(C)C)C5O)C12O (stereo not given) [Ginkgolide C] (10 µM),inactive: 0
7,O=Cc1cn(Cc2ccc(Cl)cc2)c2ccccc12 [Oncrasin-1] (10 µM),inactive: 0
8,N#CC(C#N)=NNc1cccc(Cl)c1 (2.5 µM),inactive: 0
9,CC(C)=CC[C@@H](OC(=O)CC(C)(C)O)C1=CC(=O)c2c(O)ccc(O)c2C1=O [β-Hydroxyisovalerylshikonin] (2.5 µM),inactive: 0
10,O=c1ccc2cc(O[C@@H]3O[C@H](CO)[C@@H](O)[C@H](O)[C@H]3O)c(O)cc2o1 [Esculin] (10 µM),inactive: 0
11,C[C@H]1CC[C@]2(NC1)O[C@H]1C[C@H]3[C@@H]4CC[C@H]5C[C@@H](O)CC[C@]5(C)[C@H]4CC[C@]3(C)[C@H]1[C@@H]2C [Tomatidine] (2 µM),inactive: 0
12,C/C(O)=C(\C#N)C(=O)Nc1cc(Br)ccc1Br (10 µM),inactive: 0
13,COc1ccc2c(c[n+](C)c3c4cc5c(cc4ccc23)OCO5)c1OC [Chelerythrine (chloride)] (10 µM),inactive: 0
14,COc1ccc2c(c1)[nH]c1c(C)nccc12 [Harmine] (10 µM),inactive: 0
15,CCCCCCCCCCCCCCCCOC[C@H](COP(=O)([O-])OCC[N+](C)(C)C)OC(C)=O (10 µM),inactive: 0
16,O=C(O)c1sc2cc(Cl)ccc2c1Cl (10 µM),inactive: 0
17,C[S+]([O-])/C=C/CCN=C=S (stereo not given) [Sulforaphene] (10 µM),inactive: 0
18,Cn1cc(C2=C(c3cn(C4CCN(Cc5ccccn5)CC4)c4ccccc34)C(=O)NC2=O)c2ccccc21 [Enzastaurin] (10 µM),inactive: 0
19,CCN1CCN(C(=O)Cc2ccc(Nc3ncc(F)c(Nc4ccc(C(=O)Nc5ccccc5Cl)cc4)n3)cc2)CC1 (2.5 µM),inactive: 0
20,Cc1n[nH]cc1-c1cc2nc([C@@H]3CC4CCN3CC4)[nH]c(=O)c2s1 [Simurosertib] (2.5 µM),inactive: 0
21,O=C(N[C@@H](COc1ccc2[nH]c(=O)[nH]c2c1)c1ccccc1)c1cccn(Cc2ccc(F)c(F)c2)c1=O (2.5 µM),inactive: 0
22,CCOC(=O)c1c(/C(C#N)=C\N)c2ccc(Cl)c(Cl)c2n1C (10 µM),inactive: 0
23,C[C@H](CCC(=O)O)C[C@H](C)C[C@H](C)C(=O)/C=C(\O)[C@H](C)C[C@H](C)C/C=C/[C@@H](C)[C@@H](O)[C@@H](C)[C@@H](O)C[C@@H]1CC[C@@](C)([C@H]2CC[C@@](C)([C@@H](C)O)O2)O1 [Ionomycin (calcium)] (2.5 µM),inactive: 0
24,CC(C)(C)c1cc(C=C(C#N)C#N)cc(Br)c1O (2.5 µM),inactive: 0
25,C=CC(=O)N[C@H]1C=C(C)c2c(-c3cnc4ccccc4c3)c3c(N)ncnc3n2C1 (10 µM),inactive: 0
